{"source": "patent US4007184A", "about": "“Substituted alkyl esters of quinoxaline-di-N-oxide-2-carboxylic acid” (Pfizer Inc., priority 1975, dated 1977)", "system": "Escherechia coli", "experiment": "in vivo antibacterial activity against acute infections in mice, oral", "details": "200 mg./kg. (footnote *)", "note": "At least one read-out could not be matched to a standard name with certainty.", "data": [{"smiles": "Cc1c(C(=O)OCCOC(=O)OCC(C)C)[n+]([O-])c2ccccc2[n+]1[O-]", "values": [{"measurement": "percent animals which survived, E. coli, *200 mg./kg.", "result": 80, "unit": "%"}]}]}
